Source: doi:10.1101/2023.03.20.533581
No constants are given. Whether binding was seen depends on the method and setting. In cells and extracts the contact can be indirect. Some results given as binding are weak or reduced against the parent protein; the word gives no strength. For some assays here: Sequences can lack the tags named with a protein.

Sequences of proteins named here, by UniProt entry; tags and fusion partners are left off. Residues count along the entry.
UniProt Q9I9N6: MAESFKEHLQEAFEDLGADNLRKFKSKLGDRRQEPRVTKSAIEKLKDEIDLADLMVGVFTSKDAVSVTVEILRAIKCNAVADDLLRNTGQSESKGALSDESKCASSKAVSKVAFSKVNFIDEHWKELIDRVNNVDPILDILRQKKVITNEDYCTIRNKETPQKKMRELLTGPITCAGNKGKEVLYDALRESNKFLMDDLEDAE
UniProt O14727, residues 1-90: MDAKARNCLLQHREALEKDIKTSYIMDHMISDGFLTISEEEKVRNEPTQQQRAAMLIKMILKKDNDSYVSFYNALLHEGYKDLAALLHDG

Assays:
[1] = biological target: ASC from zebrafish (Danio rerio), mEos3.1 fusion (Danio rerio) (UniProt Q9I9N6); assay: FRET or BRET; DAmFRET: ratiometric FRET (AmFRET) between the green and the photoconverted red form of mEos3.1 fused to the same protein, single living S. cerevisiae cells by flow cytometry over the range of expression, no seed
[2] = biological target: APAF1^CARD, mEos3.1 fusion (human) (UniProt O14727); assay: FRET or BRET; DAmFRET of a DFD-mEos3 fusion with a DFD-μNS-mCardinal seed expressed in trans in S. cerevisiae; the FRET is between copies of the mEos3 fusion; a nucleating interaction is a lower C50 and a larger assembled fraction (seedability at least 3 SD above the mean)
[3] = biological target: CARD9^CARD, mEos3.1 fusion (human) (UniProt Q9H257); assay: FRET or BRET; DAmFRET: ratiometric FRET (AmFRET) between the green and the photoconverted red form of mEos3.1 fused to the same protein, single living S. cerevisiae cells by flow cytometry over the range of expression, no seed
[4] = biological target: T1, DFD of CASP1 (CASP1^CARD), mEos3.1 fusion (human), P29466; assay: as above; conditions: remark: other sources report otherwise
T1 chain: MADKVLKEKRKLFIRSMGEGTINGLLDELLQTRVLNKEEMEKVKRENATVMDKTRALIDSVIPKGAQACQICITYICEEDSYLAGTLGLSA

[5] = biological target: T2, FADD, full-length (FADD^FL), mEos3.1 fusion (human), Q13158; assay: FRET or BRET; DAmFRET of a DFD-mEos3 fusion with a DFD-μNS-mCardinal seed expressed in trans in S. cerevisiae; the FRET is between copies of the mEos3 fusion; a nucleating interaction is a lower C50 and a larger assembled fraction (seedability at least 3 SD above the mean); conditions: remark: other sources report otherwise
T2 chain: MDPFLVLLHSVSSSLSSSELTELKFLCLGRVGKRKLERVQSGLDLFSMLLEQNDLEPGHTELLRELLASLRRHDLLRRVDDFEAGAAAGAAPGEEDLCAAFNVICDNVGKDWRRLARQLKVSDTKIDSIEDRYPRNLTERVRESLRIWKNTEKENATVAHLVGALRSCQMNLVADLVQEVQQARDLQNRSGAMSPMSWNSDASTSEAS

[6] = biological target: T2, FADD, full-length (FADD^FL), mEos3.1 …; assay: FRET or BRET; DAmFRET: ratiometric FRET (AmFRET) between the green and the photoconverted red form of mEos3.1 fused to the same protein, single living S. cerevisiae cells by flow cytometry over the range of expression, no seed; conditions: remark: other sources report otherwise
[7] = biological target: BCL10, full-length (FL), mEos3.1 fusion (human) (UniProt O95999); assay: as above
[8] = biological target: T3, TRADD, full-length (FL), mEos3.1 fusion (human), Q15628; assay: as above; conditions: remark: other sources report otherwise
T3 chain: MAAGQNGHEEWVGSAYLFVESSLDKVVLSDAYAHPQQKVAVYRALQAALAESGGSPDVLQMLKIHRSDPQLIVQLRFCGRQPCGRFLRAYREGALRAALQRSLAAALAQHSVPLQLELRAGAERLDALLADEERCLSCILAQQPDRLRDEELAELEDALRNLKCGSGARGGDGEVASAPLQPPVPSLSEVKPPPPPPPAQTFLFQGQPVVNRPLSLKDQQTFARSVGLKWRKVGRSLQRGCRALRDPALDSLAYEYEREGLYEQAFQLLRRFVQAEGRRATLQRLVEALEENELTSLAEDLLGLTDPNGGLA

For “ASC from zebrafish (Danio rerio), mEos3.1 fusion (from UniProt Q9I9N6 1-203)”, the binding [1] was “binds”.

“APAF1^CARD, mEos3.1 fusion (from UniProt O14727 1-90) (domain or fragment)” was tested, and the binding [2] was “no binding”.

B1: CARD9^CARD, mEos3.1 fusion (domain or fragment, UniProt Q9H257 6-98)
chain: NDDECWSVLEGFRVTLTSVIDPSRITPYLRQCKVLNPDDEEQVLSDPNLVIRKRKVGVLLDILQRTGHKGYVAFLESLELYYPQLYKKVTGKE
B1 was tested, and the binding [3] was “binds”.

B2: DFD of CASP1 (CASP1^CARD), mEos3.1 fusion, P29466 1-91 (domain or fragment)
chain: MADKVLKEKRKLFIRSMGEGTINGLLDELLQTRVLNKEEMEKVKRENATVMDKTRALIDSVIPKGAQACQICITYICEEDSYLAGTLGLSA
For B2, the binding [4] was “binds”.

B3: FADD, full-length (FADD^FL), mEos3.1 fusion, Q13158 1-208 (protein)
chain: MDPFLVLLHSVSSSLSSSELTELKFLCLGRVGKRKLERVQSGLDLFSMLLEQNDLEPGHTELLRELLASLRRHDLLRRVDDFEAGAAAGAAPGEEDLCAAFNVICDNVGKDWRRLARQLKVSDTKIDSIEDRYPRNLTERVRESLRIWKNTEKENATVAHLVGALRSCQMNLVADLVQEVQQARDLQNRSGAMSPMSWNSDASTSEAS
With B3 the binding [5] was “binds” and the binding [6] was “binds”.

B4: BCL10, full-length (FL), mEos3.1 fusion (protein, UniProt O95999 1-233)
chain: MEPTAPSLTEEDLTEVKKDALENLRVYLCEKIIAERHFDHLRAKKILSREDTEEISCRTSSRKRAGKLLDYLQENPKGLDTLVESIRREKTQNFLIQKITDEVLKLRNIKLEHLKGLKCSSCEPFPDGATNNLSRSNSDESNFSEKLRASTVMYHPEGESSTTPFFSTNSSLNLPVLEVGRTENTIFSSTTLPRPGDPGAPPLPPDLQLEEEGTCANSSEMFLPLRSRTVSRQ
With B4 the binding [7] was “binds”.

B5: TRADD, full-length (FL), mEos3.1 fusion, Q15628 1-312 (protein)
chain: MAAGQNGHEEWVGSAYLFVESSLDKVVLSDAYAHPQQKVAVYRALQAALAESGGSPDVLQMLKIHRSDPQLIVQLRFCGRQPCGRFLRAYREGALRAALQRSLAAALAQHSVPLQLELRAGAERLDALLADEERCLSCILAQQPDRLRDEELAELEDALRNLKCGSGARGGDGEVASAPLQPPVPSLSEVKPPPPPPPAQTFLFQGQPVVNRPLSLKDQQTFARSVGLKWRKVGRSLQRGCRALRDPALDSLAYEYEREGLYEQAFQLLRRFVQAEGRRATLQRLVEALEENELTSLAEDLLGLTDPNGGLA
With B5 the binding [8] was “binds”.
